From patent US5254535A, “Composition and treatment with biologically active peptides and antibiotic” (priority 1989, dated 1993)
Not every detail of the peptide structures is certain; ends, links or a residue may be inferred. Non-standard residues stand in square brackets, D forms with d. Residues, ends and D or L forms follow the SMILES beside them. No end group written: not given here. βAla = NCCC(=O)O

What was measured:
Assay type in all cases: cell-based
S. aureus = assay: MIC of peptide alone or with 20% of antibiotic MIC, procedure of Example 1; details: for MIC Peptide Alone: Table I; for MIC With Added Antibiotic Bacitracin: peptide plus 20% of the MIC of bacitracin; for MIC With Added Antibiotic Gentamicin: peptide plus 20% of the MIC of gentamicin; for MIC With Added Antibiotic Tobramycin: peptide plus 20% of the MIC of tobramycin
Procedure: (§1) S. aureus organisms are grown to mid log phase, and then diluted to 10^3 organisms/ml in 1/2 strength trypticase soy broth. After the incubation of the organisms, the minimal inhibitory concentration in ug/ml for Z-52 MG-2(amide-terminated), PGLa, CPF Z-50, A-97, Magainin II, and Z-74 peptides, against S. aureus was measured when each peptide was added alone to the organisms. "MG-2 (amide)" is amide-terminated Magainin II, and "Magainin II" is carboxy-terminated Magainin II. A-97 peptide is of the following structure:
(§2) The minimal inhibitory concentration (MIC) for each peptide was then measured when 20% of the minimal inhibitory concentration of bacitracin, tobramycin or gentamicin, respecitvely, is added to the organisms along with the peptide. The gentamicin employed is a mixture of Gentamicin C1, Gentamicin C1a, and Gentamicin C2. […] CPF Z-50 peptide has structure number (8) of the CPF peptides hereinabove described. Z-52 peptide is of the structure (ALSK)6 NH2. The minimal inhibitory concentrations are given below in Table I.

E. coli [1] = assay: as above; details: for MIC Peptide and Ampicillin: peptide plus 20% of the MIC of ampicillin; for MIC Peptide with Aztreonam: peptide plus 20% of the MIC of aztreonam, Table 5; for MIC Peptide with Bacitracin: peptide plus 20% of the MIC of bacitracin, Table 2
Procedure: as §1, §2
E. coli organisms were incubated according to the procedure described in Example 1. After the incubation, the minimal inhibitory concentrations against E. coli of each of the peptides described in Example 1 alone, as well as of each peptide when employed in combination with 20% of the MIC for bactracin, were then measured.
(§3) In this example, E. coli or P. aeruginosa organisms were incubated according to the procedure described in Example 1. After, the incubation, the minimal inhibitory concentrations of the peptides hereinabove described alone, as well as the peptides in combination with 20% of the minimal inhibitory concentrations (MIC) of benzyl penicillin or ampicillin, were then measured. […]
(§4) E. coli and P. aeruoginosa organisms were incubated according to the procedure described in Example 1. After the incubation, the minimal inhibitory concentrations of the peptides hereinabove described alone, as well as the peptides in combination with 20% of the MIC of the monobactam antibiotic aztreonam, were then measured. The MIC of aztreonam against E. coli is a 2 μg/ml, and against P. aeruginosa is 8 μg/ml.

P. aeruginosa [2] = assay: as above; details: for MIC Peptide with Aztreonam: peptide plus 20% of the MIC of aztreonam, Table 5; for MIC Peptide with Bacitracin: peptide plus 20% of the MIC of bacitracin, Table 3
Procedure: as §1, §2
In this example, P. aeruginosa organisms were incubated according to the procedure described in Example 1. After the incubation, the minimal inhibitory concentrations of the peptides hereinabove described alone, as well as the peptides in combination with 20% of the MIC of bacitracin, were then measured.
as §3, §4

E. coli [3] = assay: MIC of peptide with or without 10 μg/ml erythromycin, Example 6
Procedure: (§5) For each of the organisms listed in Table 6 below, 10^5 organisms were mid-log inoculated into 200 ml of one-half strength trypticase soy broth. The organisms were incubated for 15 hrs. at 37° C. […] The minimal inhibitory concentrations in μg/ml are given below in Table 6. […] K. pneumoniae, P. aeruginosa, and E. coli are Gram-negative bacteria.

K. pneumoniae = assay: as above
Procedure: as §5

P. aeruginosa [4] = assay: as above
Procedure: as §5

[5] = peptide with erythromycin 10 μg/ml (+)
[6] = peptide, no erythromycin added (-)
[7] = peptide plus 20% of the MIC of benzyl penicillin, Table 4

Row | Compound | MIC Peptide Alone (S. aureus) [mg/L] | MIC With Added Antibiotic Bacitracin (S. aureus) [mg/L] | MIC With Added Antibiotic Gentamicin (S. aureus) [mg/L] | MIC With Added Antibiotic Tobramycin (S. aureus) [mg/L] | MIC Peptide Alone (E. coli [1]; Example 2, Table 2) [mg/L] | MIC Peptide Alone (E. coli [1]; Example 4, Table 4) [mg/L] | MIC Peptide Alone (E. coli [1]; Example 5, Table 5) [mg/L] | MIC Peptide and Ampicillin (E. coli [1]; Table 4) [mg/L] | MIC Peptide with Aztreonam (E. coli [1]) [mg/L] | MIC Peptide with Bacitracin (E. coli [1]) [mg/L] | MIC Peptide Alone (P. aeruginosa [2]; Example 3, Table 3) [mg/L] | MIC Peptide Alone (P. aeruginosa [2]; Example 5, Table 5) [mg/L] | MIC Peptide with Aztreonam (P. aeruginosa [2]) [mg/L] | MIC Peptide with Bacitracin (P. aeruginosa [2]) [mg/L] | also measured
1 | CC[C@H](C)[C@H](NC(=O)CNC(=O)CCN)C(=O)NCC(=O)N[C@@H](CCCCN)C(=O)N[C@@H](Cc1ccccc1)C(=O)N[C@@H](CC(C)C)C(=O)N[C@@H](Cc1c[nH]cn1)C(=O)N[C@@H](C)C(=O)N[C@@H](C)C(=O)N[C@@H](CCCCN)C(=O)N[C@@H](CCCCN)C(=O)N[C@@H](Cc1ccccc1)C(=O)N[C@@H](C)C(=O)N[C@@H](CCCCN)C(=O)N[C@@H](C)C(=O)N[C@@H](Cc1ccccc1)C(=O)N[C@H](C(=O)N[C@@H](C)C(=O)N[C@@H](CCC(=O)O)C(=O)N[C@H](C(=O)N[C@@H](CCSC)C(=O)N[C@@H](CC(N)=O)C(=O)N[C@@H](CO)C(N)=O)[C@@H](C)CC)C(C)C [Peptide Z-74] (H-[βAla]GIGKFLHAAKKFAKAFVAEIMNS-NH2) | 16 | 16 | 4 | 8 | 16 | 4 | 4 | 8 | 8 | 8 | 16 | 32 | 8 | 16 | 
2 | ALSKALSKALSKALSKALSKALSK-NH2 [Peptide Z-52, (ALSK)6 NH2] | 32 | 8 | 16 | 16 | 8 | 16 | 16 | 16 | 2 | 8 | 16 | 32 | 32 | 2 | Minimal Inhibitory Concentration (E. coli [3]; [5]): < 0.5 µg/mL; Minimal Inhibitory Concentration (E. coli [3]; [6]): 1.5 µg/mL; Minimal Inhibitory Concentration (K. pneumoniae; [5]): < 0.5 µg/mL; Minimal Inhibitory Concentration (K. pneumoniae; [6]): 1.5 µg/mL; Minimal Inhibitory Concentration (P. aeruginosa [4]; [5]): < 1.5 µg/mL; Minimal Inhibitory Concentration (P. aeruginosa [4]; [6]): 5 to 15 µg/mL
3 | GIGKFLHSAGKFGKAFVKIMKS-NH2 [Peptide A-97] | 32 | 16 | 4 | 32 | 8 | 32 | 32 | 16 | 8 | 4 | 32 | 32 | 32 | 4 | MIC Peptide and Benzyl penicillin (E. coli [1]; [7]): 16 mg/L
4 | GMASKAGAIAGKIAKVALKAL-NH2 [PGLa] | 32 | 16 | 2 | 32 | 16 | 32 | 32 | 16 | 4 | 8 | 64 |  | 64 | 8 | MIC Peptide and Ampicillin (P. aeruginosa [2]; peptide plus 20% of the MIC of ampicillin, Table 4): 32 mg/L; MIC Peptide and Benzyl penicillin (P. aeruginosa [2]; [7]): 32 mg/L
